Consider 19 targets from the supplement of paper PMC10849652.

Sequences of proteins named here, by UniProt entry; tags and fusion partners are left off. A change or cut given only in a name is not applied to a line headed by its entry.
UniProt Q9NYI0: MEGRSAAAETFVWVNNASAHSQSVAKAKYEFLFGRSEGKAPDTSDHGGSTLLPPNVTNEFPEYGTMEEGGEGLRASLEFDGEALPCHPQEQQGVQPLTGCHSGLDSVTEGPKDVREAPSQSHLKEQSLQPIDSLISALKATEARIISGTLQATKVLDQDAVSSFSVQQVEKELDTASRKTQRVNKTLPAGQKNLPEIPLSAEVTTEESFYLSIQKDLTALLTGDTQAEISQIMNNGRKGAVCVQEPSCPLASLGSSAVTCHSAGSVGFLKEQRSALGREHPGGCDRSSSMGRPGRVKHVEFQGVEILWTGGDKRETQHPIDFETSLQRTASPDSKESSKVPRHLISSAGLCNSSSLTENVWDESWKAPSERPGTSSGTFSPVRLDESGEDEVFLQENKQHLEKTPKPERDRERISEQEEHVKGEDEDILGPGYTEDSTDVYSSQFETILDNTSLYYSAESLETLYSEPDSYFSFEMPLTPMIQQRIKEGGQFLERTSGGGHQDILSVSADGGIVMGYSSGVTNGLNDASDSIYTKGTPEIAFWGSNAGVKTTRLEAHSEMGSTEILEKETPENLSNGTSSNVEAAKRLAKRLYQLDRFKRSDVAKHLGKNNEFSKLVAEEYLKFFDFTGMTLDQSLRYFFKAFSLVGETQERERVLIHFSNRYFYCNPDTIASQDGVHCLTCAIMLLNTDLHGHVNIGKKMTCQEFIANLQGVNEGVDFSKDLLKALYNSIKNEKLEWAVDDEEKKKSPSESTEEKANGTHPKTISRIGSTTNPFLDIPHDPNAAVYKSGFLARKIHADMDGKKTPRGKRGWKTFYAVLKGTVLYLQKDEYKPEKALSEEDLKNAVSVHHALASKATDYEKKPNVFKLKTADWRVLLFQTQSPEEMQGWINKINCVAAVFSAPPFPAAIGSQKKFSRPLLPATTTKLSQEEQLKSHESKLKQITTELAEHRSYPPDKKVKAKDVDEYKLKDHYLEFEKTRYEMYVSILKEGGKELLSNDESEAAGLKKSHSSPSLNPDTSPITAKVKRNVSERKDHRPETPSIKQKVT
UniProt Q8WUY3: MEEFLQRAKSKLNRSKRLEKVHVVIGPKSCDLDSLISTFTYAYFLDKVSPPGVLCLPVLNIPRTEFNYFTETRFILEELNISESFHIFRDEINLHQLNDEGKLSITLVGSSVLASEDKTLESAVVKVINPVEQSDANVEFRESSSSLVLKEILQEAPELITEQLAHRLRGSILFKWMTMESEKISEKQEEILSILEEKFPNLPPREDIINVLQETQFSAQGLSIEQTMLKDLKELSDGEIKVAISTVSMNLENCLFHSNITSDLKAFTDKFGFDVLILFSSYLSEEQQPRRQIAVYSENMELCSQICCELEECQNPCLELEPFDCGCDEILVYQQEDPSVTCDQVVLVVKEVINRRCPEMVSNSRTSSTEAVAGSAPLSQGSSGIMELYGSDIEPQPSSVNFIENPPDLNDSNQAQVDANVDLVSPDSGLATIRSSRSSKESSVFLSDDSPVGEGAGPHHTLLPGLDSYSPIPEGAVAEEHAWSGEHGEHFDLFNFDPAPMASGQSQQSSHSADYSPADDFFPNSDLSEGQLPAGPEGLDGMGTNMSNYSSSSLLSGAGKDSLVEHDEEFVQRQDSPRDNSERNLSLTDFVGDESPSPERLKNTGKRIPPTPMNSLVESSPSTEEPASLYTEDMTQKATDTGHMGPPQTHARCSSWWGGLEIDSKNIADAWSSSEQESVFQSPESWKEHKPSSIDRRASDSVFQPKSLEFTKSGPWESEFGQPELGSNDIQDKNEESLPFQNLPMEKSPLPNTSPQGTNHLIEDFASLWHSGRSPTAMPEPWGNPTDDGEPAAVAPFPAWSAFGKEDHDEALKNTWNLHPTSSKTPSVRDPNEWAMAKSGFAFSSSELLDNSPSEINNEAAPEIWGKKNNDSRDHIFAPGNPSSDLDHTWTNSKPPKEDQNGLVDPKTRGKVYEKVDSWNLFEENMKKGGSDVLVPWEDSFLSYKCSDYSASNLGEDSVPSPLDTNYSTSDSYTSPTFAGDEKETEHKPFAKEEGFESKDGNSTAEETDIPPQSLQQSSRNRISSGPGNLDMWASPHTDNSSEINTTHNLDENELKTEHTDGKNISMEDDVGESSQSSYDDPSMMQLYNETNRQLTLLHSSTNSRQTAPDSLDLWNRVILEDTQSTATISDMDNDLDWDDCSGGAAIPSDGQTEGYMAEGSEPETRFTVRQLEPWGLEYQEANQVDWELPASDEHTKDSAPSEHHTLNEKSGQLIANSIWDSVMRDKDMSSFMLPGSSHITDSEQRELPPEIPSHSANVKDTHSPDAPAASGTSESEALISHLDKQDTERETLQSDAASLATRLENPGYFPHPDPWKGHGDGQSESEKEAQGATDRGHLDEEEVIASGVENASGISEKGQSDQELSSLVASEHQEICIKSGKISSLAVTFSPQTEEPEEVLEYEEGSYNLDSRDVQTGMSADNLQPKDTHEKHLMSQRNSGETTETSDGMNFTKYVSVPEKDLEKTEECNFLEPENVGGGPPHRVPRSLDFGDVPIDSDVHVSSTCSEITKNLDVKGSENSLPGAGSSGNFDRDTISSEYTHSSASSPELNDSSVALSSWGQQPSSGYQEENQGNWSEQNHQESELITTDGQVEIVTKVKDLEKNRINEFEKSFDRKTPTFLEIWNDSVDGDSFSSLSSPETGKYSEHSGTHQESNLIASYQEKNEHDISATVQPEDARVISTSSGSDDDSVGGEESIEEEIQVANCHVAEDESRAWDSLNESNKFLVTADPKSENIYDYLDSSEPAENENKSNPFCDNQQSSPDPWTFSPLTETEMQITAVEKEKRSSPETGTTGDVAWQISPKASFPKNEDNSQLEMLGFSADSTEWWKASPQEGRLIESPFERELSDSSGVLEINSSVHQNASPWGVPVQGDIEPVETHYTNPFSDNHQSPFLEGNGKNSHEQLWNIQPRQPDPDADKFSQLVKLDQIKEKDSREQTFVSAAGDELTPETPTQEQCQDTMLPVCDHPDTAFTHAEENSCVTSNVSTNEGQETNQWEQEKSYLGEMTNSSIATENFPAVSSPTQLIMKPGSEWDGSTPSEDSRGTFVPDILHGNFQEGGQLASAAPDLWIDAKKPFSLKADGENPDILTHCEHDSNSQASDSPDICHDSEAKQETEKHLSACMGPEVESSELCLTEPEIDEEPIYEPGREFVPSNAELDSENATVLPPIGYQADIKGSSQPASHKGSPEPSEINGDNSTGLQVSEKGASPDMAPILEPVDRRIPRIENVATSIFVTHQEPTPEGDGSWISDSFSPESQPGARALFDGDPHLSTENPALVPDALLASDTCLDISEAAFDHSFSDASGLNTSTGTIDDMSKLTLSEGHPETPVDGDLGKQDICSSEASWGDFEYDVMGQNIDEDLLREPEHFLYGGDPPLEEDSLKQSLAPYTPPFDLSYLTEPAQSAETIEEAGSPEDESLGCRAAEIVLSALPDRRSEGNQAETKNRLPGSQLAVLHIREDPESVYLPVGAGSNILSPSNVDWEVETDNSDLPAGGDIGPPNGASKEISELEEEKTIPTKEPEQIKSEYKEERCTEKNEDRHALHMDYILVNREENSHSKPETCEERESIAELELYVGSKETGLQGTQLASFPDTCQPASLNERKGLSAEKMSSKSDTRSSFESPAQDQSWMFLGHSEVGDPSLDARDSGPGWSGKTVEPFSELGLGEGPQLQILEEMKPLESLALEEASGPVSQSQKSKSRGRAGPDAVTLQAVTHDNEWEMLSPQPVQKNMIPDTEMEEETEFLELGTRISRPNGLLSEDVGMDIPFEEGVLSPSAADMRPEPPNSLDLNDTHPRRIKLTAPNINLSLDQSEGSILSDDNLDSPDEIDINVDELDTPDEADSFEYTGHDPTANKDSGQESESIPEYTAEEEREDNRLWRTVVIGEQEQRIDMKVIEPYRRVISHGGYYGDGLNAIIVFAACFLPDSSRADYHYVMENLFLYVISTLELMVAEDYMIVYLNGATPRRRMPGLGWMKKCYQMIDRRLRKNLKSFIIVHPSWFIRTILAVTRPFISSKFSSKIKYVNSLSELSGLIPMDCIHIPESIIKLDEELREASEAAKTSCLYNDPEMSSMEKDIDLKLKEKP
UniProt Q9UHX1: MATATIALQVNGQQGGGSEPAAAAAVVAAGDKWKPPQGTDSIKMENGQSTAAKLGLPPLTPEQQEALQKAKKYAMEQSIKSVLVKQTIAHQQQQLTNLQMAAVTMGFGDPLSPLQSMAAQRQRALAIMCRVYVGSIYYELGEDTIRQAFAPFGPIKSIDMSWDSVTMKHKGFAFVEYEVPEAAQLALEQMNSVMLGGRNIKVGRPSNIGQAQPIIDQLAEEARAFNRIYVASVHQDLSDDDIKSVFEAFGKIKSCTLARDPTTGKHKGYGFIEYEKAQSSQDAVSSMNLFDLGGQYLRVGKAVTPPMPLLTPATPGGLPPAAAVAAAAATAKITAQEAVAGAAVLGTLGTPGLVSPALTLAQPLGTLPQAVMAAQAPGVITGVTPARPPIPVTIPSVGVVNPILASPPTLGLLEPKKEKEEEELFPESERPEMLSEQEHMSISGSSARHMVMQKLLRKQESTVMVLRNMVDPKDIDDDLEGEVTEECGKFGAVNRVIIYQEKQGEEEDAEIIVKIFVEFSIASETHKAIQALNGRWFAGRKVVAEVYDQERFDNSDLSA
UniProt Q86Y79: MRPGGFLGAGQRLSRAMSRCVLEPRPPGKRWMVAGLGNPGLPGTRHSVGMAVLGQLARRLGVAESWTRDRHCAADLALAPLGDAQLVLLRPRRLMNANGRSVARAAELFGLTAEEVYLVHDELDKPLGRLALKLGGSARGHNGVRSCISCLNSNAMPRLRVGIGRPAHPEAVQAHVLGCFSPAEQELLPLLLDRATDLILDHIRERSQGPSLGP
UniProt Q9BRX8: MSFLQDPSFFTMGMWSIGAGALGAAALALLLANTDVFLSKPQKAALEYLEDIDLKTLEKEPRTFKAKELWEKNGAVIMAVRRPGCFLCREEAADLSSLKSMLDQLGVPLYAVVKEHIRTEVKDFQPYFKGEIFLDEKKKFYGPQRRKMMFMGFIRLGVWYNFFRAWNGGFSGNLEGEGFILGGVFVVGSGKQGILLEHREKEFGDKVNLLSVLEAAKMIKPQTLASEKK
UniProt Q9P2W1: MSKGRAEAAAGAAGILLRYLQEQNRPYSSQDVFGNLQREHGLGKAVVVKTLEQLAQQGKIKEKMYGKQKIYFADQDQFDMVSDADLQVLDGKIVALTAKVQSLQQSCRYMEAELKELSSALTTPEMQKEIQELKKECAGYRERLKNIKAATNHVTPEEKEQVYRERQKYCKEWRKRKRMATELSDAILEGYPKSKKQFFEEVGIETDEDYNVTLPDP
UniProt P53801: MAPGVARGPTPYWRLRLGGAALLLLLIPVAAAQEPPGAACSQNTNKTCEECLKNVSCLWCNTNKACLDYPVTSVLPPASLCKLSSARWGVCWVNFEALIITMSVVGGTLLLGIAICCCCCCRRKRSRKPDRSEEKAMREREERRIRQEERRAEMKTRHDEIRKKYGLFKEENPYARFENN
UniProt O14818: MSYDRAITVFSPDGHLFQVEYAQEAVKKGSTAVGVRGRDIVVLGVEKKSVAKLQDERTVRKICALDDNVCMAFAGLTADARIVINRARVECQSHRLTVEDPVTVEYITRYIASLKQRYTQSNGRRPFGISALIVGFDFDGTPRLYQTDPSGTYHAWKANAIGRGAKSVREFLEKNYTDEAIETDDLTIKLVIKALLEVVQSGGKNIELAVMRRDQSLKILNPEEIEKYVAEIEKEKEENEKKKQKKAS
UniProt P28065: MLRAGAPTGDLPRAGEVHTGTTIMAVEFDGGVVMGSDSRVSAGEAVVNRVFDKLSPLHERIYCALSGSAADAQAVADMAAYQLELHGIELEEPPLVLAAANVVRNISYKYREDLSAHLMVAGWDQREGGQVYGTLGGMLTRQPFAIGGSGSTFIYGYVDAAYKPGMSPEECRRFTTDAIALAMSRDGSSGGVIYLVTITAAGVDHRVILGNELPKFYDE
UniProt Q9UKA9: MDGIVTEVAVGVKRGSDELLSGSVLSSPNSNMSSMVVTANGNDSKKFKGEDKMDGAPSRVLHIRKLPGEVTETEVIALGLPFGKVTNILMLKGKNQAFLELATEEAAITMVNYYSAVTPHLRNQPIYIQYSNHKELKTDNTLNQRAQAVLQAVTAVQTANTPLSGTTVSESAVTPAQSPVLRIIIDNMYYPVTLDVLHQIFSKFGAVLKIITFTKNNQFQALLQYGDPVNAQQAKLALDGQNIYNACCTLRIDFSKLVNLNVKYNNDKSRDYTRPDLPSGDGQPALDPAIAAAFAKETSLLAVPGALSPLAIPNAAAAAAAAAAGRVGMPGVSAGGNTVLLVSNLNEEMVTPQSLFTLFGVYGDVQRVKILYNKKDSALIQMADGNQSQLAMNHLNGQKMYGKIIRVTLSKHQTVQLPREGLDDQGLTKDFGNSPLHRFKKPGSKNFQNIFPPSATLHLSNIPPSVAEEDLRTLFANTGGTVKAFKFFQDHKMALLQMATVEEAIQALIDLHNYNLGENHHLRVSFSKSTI

The list shows a part of the results.

Compound in one assay: CC1=C(C=C(C=C1)NC(=O)C2=CC(=CC=C2)N(C)C)NC(=O)C3=CC=C(C=C3)O
Description: log2 fold change, soluble protein after heating vs DMSO (PISA); higher = thermal stabilisation; K562 cells, 10 uM, 30 min; active = over 0.2 and 3.5 SD of the protein, either way, in both replicates (recomputed). An outline of the steps: (§1)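 Values are thermal stability changes relative to control samples and are taken from duplicates. They are stated as log2 fold changes. Before quantification by TMTpro 16plex LC-MS/MS with equalised channel sums, K562 cells at 2×10^6 cells/mL were treated with 10 μM compound for 30 min, heated in aliquots for 3 min across 48°C-58°C, pooled, extracted in PBS with 0.5% NP-40 at 4°C, and centrifuged at 21,000xg for 90 min to give the soluble supernatant.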
Consider PYCARD isoform 2 (UniProt Q9ULZ3), for which the log2 fold change is inactive: 0.007.
PTEN isoform 2 (UniProt P60484): the log2 fold change was inactive: -0.035.
The same measure, in the same setting: for PSIP1 (UniProt V9GYT7) the value was inactive: -0.023; for PSMA3 (UniProt H0YJ03), inactive: 0.019; for PSD3 (UniProt Q9NYI0), inactive: -0.059.
As for PSMA3 (UniProt G3V4X5), the log2 fold change was inactive: -0.046.
Turning to PRUNE2 isoform 3 (UniProt Q8WUY3), the log2 fold change was inactive: -0.079.
Turning to PUF60 isoform 2 (UniProt Q9UHX1), the log2 fold change is inactive: 0.04.
The same measure, in the same setting: for PTGER3 isoform 2 (UniProt P43115) the value was inactive: -0.087; for PTRH1 (UniProt Q86Y79), inactive: -0.017.

Compound in a further assay: CC1=CC=C(C=C1)SC2=C3C=C(SC3=CN=C2)C(=O)N
Described as above. In short, it runs like this:
as §1
Take PRXL2A (UniProt Q9BRX8): the log2 fold change was inactive: 0.012.
Still for that read-out and setting: under PSMC3IP (UniProt Q9P2W1) stands inactive: 0.02; under PSMD4 (UniProt Q5VWC4), inactive: -0.096; under PTEN isoform 2 (UniProt P60484), inactive: 0.13.
Still for that read-out and setting: for PTTG1IP (UniProt P53801) the value was inactive: -0.107; for PSMA7 isoform 2 (UniProt O14818), inactive: -0.462; for PSMB9 (UniProt P28065), inactive: -0.032.
On the same count and under the same terms, under R3HCC1L (UniProt Q7Z5L2) stands inactive: 0.025; under PSIP1 (UniProt V9GYT7), inactive: -0.06.
Turning to PVR (UniProt P15151), the log2 fold change was inactive: 0.001.
Same read-out and setting: for PTBP2 isoform 3 (UniProt Q9UKA9) the value was inactive: -0.083; for PSMA3 (UniProt H0YJ03), inactive: 0.019.
